The results in this text go back to PMC11055877.

By UniProt entry, the sequences of proteins in these tests, tags left out.
UniProt Q01094: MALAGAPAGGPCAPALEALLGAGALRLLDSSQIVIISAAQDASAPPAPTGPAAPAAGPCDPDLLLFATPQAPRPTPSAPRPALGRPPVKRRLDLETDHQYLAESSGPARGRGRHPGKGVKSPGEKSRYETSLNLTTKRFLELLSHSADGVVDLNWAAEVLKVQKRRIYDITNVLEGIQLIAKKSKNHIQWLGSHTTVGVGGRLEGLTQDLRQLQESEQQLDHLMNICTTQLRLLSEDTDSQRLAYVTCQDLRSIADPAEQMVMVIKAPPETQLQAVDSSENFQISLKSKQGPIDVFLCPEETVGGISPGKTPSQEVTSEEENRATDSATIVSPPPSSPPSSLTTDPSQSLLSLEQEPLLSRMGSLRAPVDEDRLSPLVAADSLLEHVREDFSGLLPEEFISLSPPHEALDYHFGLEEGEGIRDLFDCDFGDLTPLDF
UniProt Q16254: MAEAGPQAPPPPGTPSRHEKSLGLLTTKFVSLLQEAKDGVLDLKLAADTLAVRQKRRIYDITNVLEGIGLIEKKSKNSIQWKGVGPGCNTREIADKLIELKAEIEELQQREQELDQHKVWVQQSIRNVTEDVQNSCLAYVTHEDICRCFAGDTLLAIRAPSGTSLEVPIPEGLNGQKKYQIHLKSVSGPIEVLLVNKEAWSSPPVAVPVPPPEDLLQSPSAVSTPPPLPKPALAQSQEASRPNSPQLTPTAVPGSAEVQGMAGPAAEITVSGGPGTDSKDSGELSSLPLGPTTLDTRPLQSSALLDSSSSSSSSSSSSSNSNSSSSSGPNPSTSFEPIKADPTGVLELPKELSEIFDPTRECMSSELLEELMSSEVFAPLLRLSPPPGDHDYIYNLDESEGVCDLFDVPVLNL
UniProt Q92830: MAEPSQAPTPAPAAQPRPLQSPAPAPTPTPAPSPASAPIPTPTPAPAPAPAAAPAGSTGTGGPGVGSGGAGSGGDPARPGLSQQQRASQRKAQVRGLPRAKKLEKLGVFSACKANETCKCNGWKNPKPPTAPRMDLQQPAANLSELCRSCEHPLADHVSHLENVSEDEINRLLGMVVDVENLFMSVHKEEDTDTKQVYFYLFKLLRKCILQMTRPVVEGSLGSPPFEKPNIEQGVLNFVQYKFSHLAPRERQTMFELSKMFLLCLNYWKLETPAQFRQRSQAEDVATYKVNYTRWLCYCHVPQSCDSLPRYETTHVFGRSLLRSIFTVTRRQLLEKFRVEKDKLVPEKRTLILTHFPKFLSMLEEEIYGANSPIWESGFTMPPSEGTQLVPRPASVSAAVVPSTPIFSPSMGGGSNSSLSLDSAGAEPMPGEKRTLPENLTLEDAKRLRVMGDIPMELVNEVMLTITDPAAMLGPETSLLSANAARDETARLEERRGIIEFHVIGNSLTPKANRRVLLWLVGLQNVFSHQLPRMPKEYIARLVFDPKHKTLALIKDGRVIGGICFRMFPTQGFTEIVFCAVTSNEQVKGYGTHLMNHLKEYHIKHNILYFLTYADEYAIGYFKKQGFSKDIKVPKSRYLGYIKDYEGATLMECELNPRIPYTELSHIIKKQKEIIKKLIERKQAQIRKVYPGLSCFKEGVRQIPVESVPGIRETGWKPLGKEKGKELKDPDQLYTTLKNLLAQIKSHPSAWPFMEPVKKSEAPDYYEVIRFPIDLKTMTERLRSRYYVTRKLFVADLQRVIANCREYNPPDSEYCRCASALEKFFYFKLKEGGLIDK

These are yes or no findings as the source states them, for the method shown. Binding seen in cells or lysates may run through a third protein. Some binding calls cover weakened binding; strength is not graded here.

In assay [1] the target is E2F1 (human (endogenous in PDAC CSCs)) (UniProt Q01094). Nature of the assay: co-IP; nuclear and chromatin fractions of pancreatic CSCs (Nuclear Lysis Buffer: 50 mM Tris HCl pH 7.5, 100 mM NaCl, 50 mM KCl, 2 mM MgCl2, 1 mM EDTA, 10% glycerol, 0.3% Triton X-100; Benzonase); 5 µg cross-linked antibodies for 12 h at 4 °C; western blot; alternatively the nuclear complex co-IP kit (Active Motif).

In assay [2] the target is E2F4 (human (endogenous in PDAC CSCs)) (UniProt Q16254). Described as above.

Turning to “GCN5 histone acetyltransferase (from UniProt Q92830 1-837) (enzyme)”, the binding entry in assay [1] and in assay [2] was “binds” in each case.
